Source: patent publication US12630600B2 (MEDIMMUNE LIMITED, priority 2022, dated 2026)
At least one peptide structure holds a part that was inferred or is arguable (an end, a ring closure or a residue). Starred links: 1 amine or outer side, 2 acyl side, 3 side chain; linkers in the order of their positions; H or OH if unused. Non-standard residues stand in square brackets, D forms with d. Residues, ends and D or L forms follow the SMILES beside them. Groups on a side chain read outwards from the residue. *: point of attachment. X1 = CC(C)(CCNC(=N)N)[C@H](N[*:1])C(=O)[*:2]; C20 diacid = O=C(O)CCCCCCCCCCCCCCCCCCC(=O)*; C18 diacid = O=C(O)CCCCCCCCCCCCCCCCC(=O)*; γGlu = O=C(O)[C@H](CCC(=O)[*:2])N[*:1]; Stearoyl = CCCCCCCCCCCCCCCCCC(=O)*; αMeF = C[C@](N)(Cc1ccccc1)C(=O)O; PEG2 = NCCOCCOCCC(=O)O; AEEA = NCCOCCOCC(=O)O; Aib = CC(C)(N)C(=O)O

Sequences of proteins named here, by UniProt entry; tags and fusion partners are left off. Residues count along the entry.
UniProt P43220, 24-463: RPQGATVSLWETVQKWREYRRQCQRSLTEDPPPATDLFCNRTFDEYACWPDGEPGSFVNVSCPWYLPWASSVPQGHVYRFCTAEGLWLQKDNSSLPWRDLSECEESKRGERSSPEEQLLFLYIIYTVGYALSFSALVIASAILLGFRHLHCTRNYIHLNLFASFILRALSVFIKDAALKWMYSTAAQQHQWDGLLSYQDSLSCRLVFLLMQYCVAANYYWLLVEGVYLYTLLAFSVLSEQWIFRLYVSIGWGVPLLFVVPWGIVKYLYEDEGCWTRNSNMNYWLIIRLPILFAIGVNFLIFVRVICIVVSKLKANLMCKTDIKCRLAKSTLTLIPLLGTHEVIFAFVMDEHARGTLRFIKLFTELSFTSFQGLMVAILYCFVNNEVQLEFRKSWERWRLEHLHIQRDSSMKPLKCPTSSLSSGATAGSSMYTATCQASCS

Key:
Male C57Bl/6 mice = experiment: Mouse acute food intake study; assay type: in vivo; conditions: s.c., dose 1 nmol/kg, food intake at 24 h vs vehicle
Experimental: Male C57Bl/6 mice obtained from Jackson Laboratories or Charles River at 8-9 weeks of age and were housed one per cage in BioDaq (Research Diets) cages. Mice were placed on Alpha Dri bedding, standard chow diet (Envigo, 2018) and given water pouches. Mice were allowed to acclimate for 1-2 weeks. Body weight was measured to ensure appropriate acclimation. After acclimation, mice were sham dosed a minimum of 2 times prior to initiation of food intake study. On study day, mice were placed in clean cage bottoms, weighed, and fasted for 6-8 hours. Mice were sorted into groups based on average 24-hour food intake data and body weight. 1-2 hours prior to lights out, mice were dosed subcutaneously with one vehicle or test peptide dissolved in an appropriate vehicle at 5 mL/kg. Mice were left undisturbed and allowed access to food and water for 48 hours. Automated food intake was monitored in the BioDaq system was monitored during this time. Discrete food intake data was exported into MS Excel from which cumulative food intake data was generated and analyzed.

[1] = molecular target: T1, human GLP-1 receptor (hGLP-1R) (Homo sapiens, UniProt P43220); experiment: cAMP production (HTRF) in CHO cells expressing human GLP-1 receptor; assay type: cell-based; conditions: Table 8; % GLP-1R activity relative to GLP-1 / % GlucR activity relative to glucagon
T1 construct: expressed in transfected cells; host or cells: CHO
Experimental: Cells were re-suspended in assay buffer at a batch-dependent optimized concentration (typically hGLP-1R cells at 1×10^5 cells/mL, hGCGR cells at 2×10^5 cells/mL).
Cells were added to the assay plate using a multidrop dispenser and incubated at room temperature for 30 minutes before measuring the cAMP level using a cAMP dynamic 2 homogeneous time resolved Fluorescence (HTRF) kit (Cisbio Bioassays #62AM4PEJ) following the two-step protocol as per manufacturer's recommendations. In brief, anti-cAMP cryptate (donor fluorophore) and cAMP-d2 (acceptor fluorophore) were made up separately by diluting each 1 in 20 in conjugate and lysis buffer provided in the kit. Anti-cAMP cryptate was added to all wells of the assay plate, followed by cAMP-d2 added to all wells except non-specific binding (NSB) wells (to which conjugate and lysis buffer was added).
Data was transformed to % Delta F as described in the manufacturer's guidelines and analyzed by 4-parameter logistic fit to determine EC50 values.

wildtype (WT) mice = experiment: Glucose change in wildtype mice; assay type: in vivo, mouse; conditions: s.c.
Experimental: […] and wildtype (WT) mice at 8-14 weeks of age were singly housed on standard chow diet (Envigo, 2918) and automatic water. They acclimated for a minimum of ˜1-2 weeks, and mice were sorted into groups (n=4-8/group) based on body weight. On day of study, mice were fasted briefly for 2 hrs prior to study start. In some studies, mice were pre-treated with octreotide (BaChem, 10 mg/kg) at 30 minutes prior to peptide injection. Glucose was measured via glucometer at various timepoints including −30 min (prior to octreotide when used in studies), 0 min (before peptide dose), 30, 60, 120, 180, 240, and 360 minutes. Since these studies are acute in nature, mice were re-used for multiple studies (no more than 3) and always allowed at least a minimum wash-out period of 1 week.

CC[C@H](C)[C@H](NC(=O)C(C)(C)NC(=O)[C@H](CCC(N)=O)NC(=O)[C@@H](NC(=O)[C@](C)(Cc1ccccc1)NC(=O)[C@H](CC(=O)O)NC(=O)[C@H](CCCCNC(=O)COCCOCCNC(=O)COCCOCCNC(=O)CC[C@H](NC(=O)CC[C@H](NC(=O)CCCCCCCCCCCCCCCCCCC(=O)O)C(=O)O)C(=O)O)NC(=O)[C@H](C)NC(=O)[C@H](C)NC(=O)[C@H](CCCNC(=N)N)NC(=O)[C@H](CO)NC(=O)[C@H](CC(=O)O)NC(=O)[C@H](CC(C)C)NC(=O)[C@](C)(Cc1ccccc1)NC(=O)[C@H](CCCCN)NC(=O)[C@H](CO)NC(=O)[C@@H](NC(=O)[C@H](CC(=O)O)NC(=O)[C@H](CO)NC(=O)[C@@H](NC(=O)[C@](C)(Cc1ccccc1)NC(=O)[C@H](CO)NC(=O)CNC(=O)[C@H](Cc1c[nH]cn1)NC(=O)C(C)(C)NC(=O)[C@@H](N)Cc1c[nH]cn1)[C@@H](C)O)C(C)C)C(C)C)C(=O)N[C@@H](C)C(=O)N[C@@H](CC(N)=O)C(=O)N[C@H](C(N)=O)[C@@H](C)O [Peptide 229, H-Aib-H-G-S-αMePhe-T-S-D-V-S-K-αMePhe-L-D-S-R-A-A-K(ε-(O2Oc)-(O2Oc)-γE-γE-C20diacid)20-D-αMePhe-V-Q-Aib-I-A-N-T-amide] (H-H[Aib]HGS[αMeF]TSDVSK[αMeF]LDSRAAK([AEEA-AEEA-γGlu-γGlu-C20 diacid])D[αMeF]VQ[Aib]IANT-NH2)
24 hr % Vehicle Food Intake (Male C57Bl/6 mice): 86.0%

CC[C@H](C)[C@H](NC(=O)[C@H](Cc1c[nH]c2ccccc12)NC(=O)[C@H](CCCCNC(=O)COCCOCCNC(=O)COCCOCCNC(=O)CC[C@H](NC(=O)CC[C@H](NC(=O)CCCCCCCCCCCCCCCCC(=O)O)C(=O)O)C(=O)O)NC(=O)[C@@H](NC(=O)[C@H](Cc1ccccc1)NC(=O)[C@H](CC(=O)O)NC(=O)[C@H](CCC(N)=O)NC(=O)[C@H](C)NC(=O)[C@H](C)NC(=O)[C@H](CCCNC(=N)N)NC(=O)[C@H](CO)NC(=O)[C@H](CC(=O)O)NC(=O)[C@H](CC(C)C)NC(=O)[C@](C)(Cc1ccccc1)NC(=O)[C@H](CCCCN)NC(=O)[C@H](CO)NC(=O)[C@@H](NC(=O)[C@H](CC(=O)O)NC(=O)[C@H](CO)NC(=O)[C@@H](NC(=O)[C@](C)(Cc1ccccc1)NC(=O)[C@H](CO)NC(=O)CNC(=O)[C@H](Cc1c[nH]cn1)NC(=O)C(C)(C)NC(=O)[C@@H](N)Cc1c[nH]cn1)[C@@H](C)O)C(C)C)C(C)C)C(=O)N[C@@H](C)C(=O)N[C@@H](CC(N)=O)C(=O)N[C@H](C(N)=O)[C@@H](C)O [Peptide 362] (H-H[Aib]HGS[αMeF]TSDVSK[αMeF]LDSRAAQDFVK([AEEA-AEEA-γGlu-γGlu-C18 diacid])WIANT-NH2; N-terminus assumed)
% Relative Potency Ratio [1]: 1.5

CC[C@H](C)[C@H](NC(=O)C(C)(C)NC(=O)[C@H](C)NC(=O)[C@@H](NC(=O)[C@](C)(Cc1ccccc1)NC(=O)[C@H](CC(=O)O)NC(=O)[C@H](CCCCNC(=O)COCCOCCNC(=O)COCCOCCNC(=O)CC[C@H](NC(=O)CCCCCCCCCCCCCCCCC(=O)O)C(=O)O)NC(=O)[C@H](C)NC(=O)[C@H](C)NC(=O)[C@H](CCCNC(=N)N)NC(=O)[C@H](CO)NC(=O)[C@H](CC(=O)O)NC(=O)[C@H](CC(C)C)NC(=O)[C@](C)(Cc1ccccc1)NC(=O)[C@H](CCCCN)NC(=O)[C@H](CO)NC(=O)[C@@H](NC(=O)[C@H](CC(=O)O)NC(=O)[C@H](CO)NC(=O)[C@@H](NC(=O)[C@](C)(Cc1ccccc1)NC(=O)[C@H](CO)NC(=O)CNC(=O)[C@H](Cc1c[nH]cn1)NC(=O)C(C)(C)NC(=O)[C@@H](N)Cc1c[nH]cn1)[C@@H](C)O)C(C)C)[C@@H](C)CC)C(=O)N[C@@H](C)C(=O)N[C@@H](CCC(=O)O)C(=O)N[C@H](C(N)=O)[C@@H](C)O [Peptide 301] (H-H[Aib]HGS[αMeF]TSDVSK[αMeF]LDSRAAK([AEEA-AEEA-γGlu-C18 diacid])D[αMeF]IA[Aib]IAET-NH2)
WT % glucose change 60 min (wildtype (WT) mice; 10 nmol/kg, no somatostatin pretreatment): −43%

CC[C@H](C)[C@H](NC(=O)C(C)(C)NC(=O)[C@H](CCCCNC(=O)COCCOCCNC(=O)COCCOCCNC(=O)CC[C@H](NC(=O)CC[C@H](NC(=O)CCCCCCCCCCCCCCCCCCC(=O)O)C(=O)O)C(=O)O)NC(=O)[C@@H](NC(=O)[C@](C)(Cc1ccccc1)NC(=O)[C@H](CC(=O)O)NC(=O)[C@H](CCC(N)=O)NC(=O)[C@H](C)NC(=O)[C@H](C)NC(=O)[C@H](CCC(N)=O)NC(=O)[C@H](CO)NC(=O)[C@H](CC(=O)O)NC(=O)[C@H](CC(C)C)NC(=O)[C@](C)(Cc1ccccc1)NC(=O)[C@H](CCCCN)NC(=O)[C@H](CO)NC(=O)[C@@H](NC(=O)[C@H](CC(=O)O)NC(=O)[C@H](CO)NC(=O)[C@@H](NC(=O)[C@](C)(Cc1ccccc1)NC(=O)[C@H](CO)NC(=O)CNC(=O)[C@H](Cc1c[nH]cn1)NC(=O)C(C)(C)NC(=O)[C@@H](N)Cc1c[nH]cn1)[C@@H](C)O)C(C)C)C(C)C)C(=O)N[C@@H](C)C(=O)N[C@@H](CC(N)=O)C(=O)N[C@H](C(N)=O)[C@@H](C)O [Peptide 384] (H-H[Aib]HGS[αMeF]TSDVSK[αMeF]LDSQAAQD[αMeF]VK([AEEA-AEEA-γGlu-γGlu-C20 diacid])[Aib]IANT-NH2)
% Relative Potency Ratio [1]: 3.1

CCCCCCCCCCCCCCCCCC(=O)N[C@@H](CCC(=O)N[C@@H](CCC(=O)NCCOCCOCCC(=O)NCCOCCOCCC(=O)NCCCC[C@H](NC(=O)[C@H](CCCCN)NC(=O)[C@H](CO)NC(=O)[C@@H](NC(=O)[C@H](CC(=O)O)NC(=O)[C@H](CO)NC(=O)[C@@H](NC(=O)[C@](C)(Cc1ccccc1)NC(=O)[C@H](CO)NC(=O)CNC(=O)[C@H](CCC(N)=O)NC(=O)[C@H](CO)NC(=O)[C@@H](N)Cc1c[nH]cn1)[C@@H](C)O)C(C)C)C(=O)N[C@@H](CC(C)C)C(=O)N[C@@H](CC(=O)O)C(=O)N[C@@H](CO)C(=O)N[C@H](C(=O)N[C@@H](C)C(=O)N[C@@H](C)C(=O)N[C@@H](CCC(N)=O)C(=O)N[C@@H](CC(=O)O)C(=O)N[C@@](C)(Cc1ccccc1)C(=O)N[C@H](C(=O)N[C@@H](CCC(=O)O)C(=O)NC(C)(C)C(=O)N[C@@H](CC(C)C)C(=O)N[C@@H](C)C(=O)N[C@@H](CC(N)=O)C(=O)N[C@H](C(N)=O)[C@@H](C)O)C(C)C)C(C)(C)CCNC(=N)N)C(=O)O)C(=O)O [Peptide 399, HSQGS(αMePhe)TSDVSKK((PEG)2-(PEG)2-γE-γE-Stearoyl)13LDS(ß-dimethylArg)AAQD(αMePhe)VE(Aib)LANT-amide] (H-HSQGS[αMeF]TSDVSKK([PEG2-PEG2-γGlu-γGlu-Stearoyl])LDS[X1]AAQD[αMeF]VE[Aib]LANT-NH2; N-terminus assumed)
WT % glucose change 120 min (wildtype (WT) mice; 30 nmol/kg, somatostatin pretreatment 30 min prior to cpd): −45.0%
